In article PMC13523842:
Results are given in words; binding and its absence hold for the method and conditions named. In cells and extracts the contact can be indirect. Binding calls can cover weak binding; strength is not graded here.

Sequences of proteins named here, by UniProt entry; tags and fusion partners are left off. A change or cut given only in a name is not applied to a line headed by its entry.
UniProt Q7KT57: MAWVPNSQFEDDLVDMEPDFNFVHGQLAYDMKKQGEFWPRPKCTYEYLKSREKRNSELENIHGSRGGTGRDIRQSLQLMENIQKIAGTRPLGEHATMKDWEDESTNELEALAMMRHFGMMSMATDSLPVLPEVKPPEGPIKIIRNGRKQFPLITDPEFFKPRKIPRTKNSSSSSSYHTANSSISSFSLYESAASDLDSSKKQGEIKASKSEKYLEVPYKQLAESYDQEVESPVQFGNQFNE

Assays:
[1] = molecular target: GFP-3xFlag-Squ^WT expressed under the native squ promoter (Drosophila melanogaster); assay: co-IP; GFP-3xFlag-Squ (WT or 4A, native promoter) precipitated with anti-FLAG antibodies from ovaries lacking endogenous Squ; blot for Spn-E, 3 biological replicates
[2] = molecular target: GFP-3xFlag-Squ^WT expressed under the native squ promoter (Drosophila melanogaster); assay: co-IP; co-immunoprecipitation from ovaries expressing Squ^WT or Squ^4A in the spn-E mutant background (no Spn-E)
[3] = molecular target: GFP-3xFlag-Squ^4A expressed under the native squ promoter (Drosophila melanogaster); assay: as above
[4] = molecular target: Squash (Squ), endogenous (Drosophila melanogaster (endogenous in ovaries)) (UniProt Q7KT57); assay: co-IP; crosslinking immunoprecipitation: y w ovaries fixed with 0.1% paraformaldehyde, lysate sonicated, endogenous Squ precipitated with anti-Squ antibody and Dynabeads Protein G/A, western blot; also with RNase A (50 ug/mL, 37 C, 30 min) treatment of the lysate; no-antibody negative control

binding [1]	binding [2]	binding [3]	binding [4]	Binder
binds	–	–	–	Spindle-E (Spn-E), endogenous (protein, UniProt Q9VF26 1-1434) MDQEVMDFFDFSKELKRVAAAPQGYISSDPRLMATKFKSSEVPNRELIGTDYVSKIVAKEKCLLNGTLLNEQPQGKRIRTLDDLDTDDEGEETEIRRDDEYYKKFRFNLNRDKNLSIYAKREEILAAINAHPVVIIKGETGCGKTTQVPQYILDEAYKSGKYCNIVVTQPRRIAAISIANRVCQEREWQQNTVCSFQVGLHRPNSLEDTRLLYCTTGVLLNNLINNKTLTHYTHIVLDEVHERDQNMDFLLIVVRRLLATNSRHVKIILMSATIDAKELSDYFTTTNSIPPVITTNHRRKHSIEKFYRDQLGSIIWNEEDVGHQQVPEINKHGYRAAVKIIVIIDNMERKAAIQSRQSYDEALRYGAVLIFLPGIYEIDTMAENLTCMLENDPNIKVSIVRCFSLMTPENQRDVFNPPPPGFRKIILTTNIAESSITVPDVSYVIDFCLAKVKVTDTASSFSSLRLTWASKANCRQRAGRVGRLRSGRVYRMVNKHFYQREMPEFGIPEMLRLPLQNSVLKAKVLNMGSPVEILALALSPPNLSDIHNTILLLKEVGALYLTVDGIYDPLDGDLTYWGTIMSRLPLDTRQSRLIILGYIFNMLEEAIIIAAGLSTPGLFAHEGGRSQLGDSFWMHYIFSDGSGSDLVAIWRVYLTYLNIVENGHDQESAIRWAKRFHVSLRSLKEIHLLVQELRVRCTHLGLIPFPVNPNQMMDDREKAIMLKVIIAGAFYPNYFTRSKESCADTDRNIYQTISGHDPCRTVYFTNFKPAYMGELYTRRIKELFQEVRIPPENMDVTFQEGSQKVFVTFKQDDWIEGSSKYVPVSGRVQSEVYKAVMMRQNRVERPIHIMNPSAFMSYVQQRGIGDVIEGRWIPPTKPLNVELLALPSVFDKTISGSITCIVNCGKFFFQPQSFEECIRNMSEIFNAPQQLRNYVTNASAIAKGMMVLAKRDSYFQRATVIRPENQSNRQPMFYVRFIDYGNCTLLPMQLMRLMPRELTEQYGDLPPRVFECRLAMVQPSSVVSGNNRWSTAANDMLKTVAQCGLIDIEVYSLFNNVAAVLIHMRDGIINDKLVELMLCRRSDEDYMSRKDHDFRLRRQESARNLSTAQRQQINEEYLRSCQLPQDHDLPPPPLEKCKTVVMLKGPNSPLECTMRSITRVGLSKRVNIDHLSVNALLLDADPQDHHDHLIVAHEIAESRNGQTLTARGTTLMPNVQGFGALMVMLFSPTMQLKCNKEGTSYVSVLGGLGCDPDTNEPYFAEHDVLINLDVNILEDDVILINQIRYYIDSVFFNFKEENNPAVSVNERVSIYTQLRSLINRLLCKDRRYIERNMSNADFEWETNPELPLPNEPFGKRAIFPMHSLTELQEEDTGRLVQLRENCSMLHKWRNFEGTLPHMTCKLCNQLLESVPQLRLHLLTILHRDREKQIDYCNQ
–	binds	binds	binds weakly	Ago3, endogenous (protein, UniProt Q7PLK0 1-867) MSGRGNLLSLFNKNAGNMGKSISSKDHEIDSGLDFNNSESSGERLLSSHNIETDLITTLQHVNISVGRGRARLIDTLKTDDHTSNQFITSESKENITKKTKGPESEAIASENGLFFPDLIYGSKGSSVNIYCNYLKLTTDESKGVFNYEVRFFPPIDSVHLRIKYLNDHKDKLGGTKTFDGNTLYLPILLPNKMTVFISKAEDVELQIRILYKKKEEMRNCTQLYNILFDRVMKVLNYVKFDRKQFDPSRPKIIPLAKLEVWPGYVTAVDEYKGGLMLCCDVSHRILCQKTVLEMLVDLYQQNVEHYQESARKMLVGNIVLTRYNNRTYKINDICFDQNPTCQFEIKTGCTSYVEYYKQYHNINIKDVNQPLIYSIKKSRGIPAERENLQFCLIPELCYLTGLRDEVRSDNKLMREIATFTRVSPNQRQMALNKFYENVSNTPAAQEILNSWGLSLTNNSNKISGRQMDIEQIYFSKISVSAGRSAEFSKHAVTNEMLKVVHLSKWIIIHLRNYRQAATSLLDNMKQACESLGMNISNPTMISLDHDRIDAYIQALRRNITMNTQMVVCICHNRRDDRYAAIKKICCSEIPIPSQVINAKTLQNDLKIRSVVQKIVLQMNCKLGGSLWTVKIPFKNVMICGIDSYHDPSNRGNSVAAFVASINSSYSQWYSKAVVQTKREEIVNGLSASFEIALKMYRKRNGKLPTNIIIYRDGIGDGQLYTCLNYEIPQFEMVCGNRIKISYIVVQKRINTRIFSGSGIHLENPLPGTVVDQHITKSNMYDFFLVSQLVRQGTVTPTHYVVLRDDCNYGPDIIQKLSYKLCFLYYNWAGTVRIPACCMYAHKLAYLIGQSIQRDVAEALSEKLFYL
